From PubChem BioAssay AID2685 (National Center for Advancing Translational Sciences (NCATS), 2010) come the findings set out here.

Some of the results follow. The main result of the screen is listed elsewhere. These columns were measured beside it and carry no call. The list favours compounds with an active or inconclusive main result. Potencies come from curve fits of mixed quality, noted in brackets. Where a SMILES comes first, the peptide text is derived from it.

What is called AC50 is the concentration at which the activity in the assay is half-maximal.

The assay is described as follows: qHTS Assay for Lipid Storage Modulators in Drosophila S3 Cells.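 For cell number change: cells counted by Cell Tracker Red CMTPX staining in the red channel.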 The conditions noted are these: BODIPY lipid droplet fluorescence, 18-24 h; for cell number change: measured here: cell count max response, cells fed with added oleic acid. The method, boiled down:
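Laser-scanning cytometry quantifies lipid droplet accumulation (500–530 nm total intensity; droplet/cell object ratio) in oleic acid-fed (400 uM added) Drosophila S3 cells treated with a concentration series. 20 uM Triacsin C defined 100% inhibition.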
A general note: qHTS replaces the single test concentration by a dilution series.

Setting [1] is: measured here: cell number channel AC50, cells fed with added oleic acid.
Setting [2] is: measured here: lipid fluorescence (Fed channel) AC50, cells fed with added oleic acid.

On to `Nc1c(-c2ccccc2)c(CN2CCOCC2)nn1-c1ccc(C(=O)O)cc1`, for which the cell number change is -11.3%. As to `CCCc1cc(=O)[nH]c(SCC(=O)C(C)(C)C)n1`, the cell number change is -27.4%. The AC50 under setting [1] was 0.0366 µM [falling, full curve, poor fit]. Under setting [2], the AC50 was 0.92 µM [falling, full curve, poor fit].

Take `CN(C)Cc1c(C(=O)N/N=C/c2cccc(OCc3ccc(F)cc3)c2)nnn1-c1nonc1N`: the cell number change is 14.5%. Moreover, under setting [2], the AC50 is 29.1 µM [rising, single point].

Turning to `COc1ccc(C(=O)C2CCCN(C(=O)c3ccc(CSC)o3)C2)cc1F` (stereo not given), the cell number change is -6.07%. The AC50 under setting [2] was 29.1 µM [falling, single point].

Take `CC(C)Cc1ccc(CN2CCCC(NC(=O)CCn3cnnn3)C2)cc1` (stereo not given): the cell number change is 6.07%.

`COc1ccc(-n2c(COc3cccc(C)c3)nnc2SCC(=O)NCc2ccco2)cc1`: the cell number change is -176%. Moreover, under setting [1], the AC50 is 29.1 µM [falling, single point]. Moreover, the AC50 under setting [2] was 29.1 µM [falling, single point]. For `CCCCCOc1ccc(CSCCNC(=S)Nc2ccccc2)cc1`, the cell number change is -22.5%. Take `CN(C(=O)C1CCCN1S(=O)(=O)c1ccc(Cl)cc1)c1ccccc1` (stereo not given): the cell number change was 18.1%. Further, under setting [1], the AC50 was 0.731 µM [falling, single point]. For `COc1ccc(OC)c(-n2c(-c3cc(-c4ccc(F)cc4)n[nH]3)n[nH]c2=S)c1`, the cell number change is -26.2%. Also, the half-maximal activity concentration (AC50) under setting [2] was 32.6 µM [falling, single point]. In the case of `O=C(Nc1ccc(Oc2ccccc2)nc1)C1CCN(Cc2cccc(F)c2)CC1`, the cell number change was -31.2%. Besides, under setting [1], the AC50 is 29.1 µM [falling, single point]. Besides, the AC50 under setting [2] is 29.1 µM [falling, single point]. Take `COCC(=O)Nc1cc(OC)c(Cl)cc1OC`: the cell number change is 169%. The AC50 under setting [1] is 16.4 µM [rising, partial curve]. The AC50 under setting [2] was 29.1 µM [rising, single point]. Turning to `CS(=O)(=O)c1ccc(C(=O)NC(Cc2ccccc2)c2ccccc2)cc1` (stereo not given), the cell number change is 20.2%. For the same molecule, the AC50 under setting [2] is 32.6 µM [falling, single point]. `COC(=O)c1ccc(C(=O)Nc2ccc3c(c2)C(=O)NC3=O)cc1`: the cell number change was -21.8%. Further, the AC50 under setting [2] was 29.1 µM [falling, single point]. For the molecule `COc1cccc(C2CC(c3cccs3)=NN2C(=O)c2ccco2)c1O` (stereo not given), the cell number change is 2.61%. Consider `O=c1cc(C(F)(F)F)nc(-c2ccccc2)[nH]1`, for which the cell number change was -2.39%. Moreover, the AC50 under setting [2] is 1.16 µM [rising, partial curve].

`Cc1c(Nc2nc3ccccc3nc2N2CCN(c3ccccc3)CC2)c(=O)n(-c2ccccc2)n1C`: the cell number change was -25.9%. The AC50 under setting [2] is 0.58 µM [rising, single point]. On to `NS(=O)(=O)c1ccc(NC(=O)COC(=O)CCc2c[nH]c3ccccc23)cc1`, for which the cell number change was -39.5%. Moreover, the AC50 under setting [1] was 0.13 µM [falling, full curve]. For the same molecule, under setting [2], the AC50 was 0.517 µM [falling, full curve]. For `COc1ccc(C)cc1N(CC(=O)N1CCCCCC1)S(=O)(=O)c1ccccc1`, the cell number change worked out at 5.13%. As for `C[C@H](NS(=O)(=O)c1ccc2c(c1)OCCCO2)C(=O)N1CCN(Cc2ccccc2)CC1`, the cell number change was -50%. In addition, under setting [1], the AC50 was 29.1 µM [falling, single point]. Turning to `CCCCC(=O)Nc1ccc2oc(-c3ccncc3)nc2c1`, the cell number change worked out at 232%. Moreover, under setting [1], the AC50 is 29.1 µM [rising, single point]. Besides, the AC50 under setting [2] was 29.1 µM [rising, single point]. Take `Cc1cccc(N(CC(=O)Nc2ccc(CC#N)cc2)S(C)(=O)=O)c1`: the cell number change was -155%. Besides, the AC50 under setting [1] was 16.4 µM [falling, partial curve]. Also, the AC50 under setting [2] was 23.1 µM [falling, partial curve]. Consider `CN(c1ccccc1C(=O)NCc1ccccn1)S(C)(=O)=O`, for which the cell number change is 16.1%. Further, the AC50 under setting [1] is 1.3 µM [falling, full curve, poor fit]. The AC50 under setting [2] is 6.51 µM [falling, single point]. Regarding `Cc1cccc(Oc2ccc(NS(=O)(=O)c3ccc(C)c(C(=O)O)c3)cc2)c1`, the cell number change worked out at 5.29%. `O=C(Nc1ccc2c(c1)OCCO2)c1ccccn1`: the AC50 under setting [2] was 0.13 µM [rising, single point]. As for `COc1cccc(C2C(C(=O)OC(C)C)=C(C)N=c3s/c(=C\c4ccc(C(=O)O)cc4)c(=O)n32)c1` (stereo not given), the cell number change amounted to 17.4%. Consider `O=C(CN1C(=O)CSc2ncccc21)NCCN1CCOCC1`, for which the cell number change was 12%. In addition, the AC50 under setting [2] was 0.184 µM [rising, full curve, poor fit]. With `Cc1ccc(NC(=O)CSCC#N)cc1`, the cell number change worked out at 30.9%. Besides, the AC50 under setting [1] was 6.51 µM [rising, partial curve].

For `C/C(N)=C(/C#N)C(=O)CSc1nncn1-c1ccccc1`, the AC50 under setting [2] is 6.51 µM [falling, partial curve]. Regarding `CCc1cccc2c(C(=O)CN3C(=O)N(C)C4(CCCCC4)C3=O)c[nH]c12`, the cell number change is -11.7%. With `COc1ccc(S(=O)(=O)N2CCN(C(=O)c3cc(-c4ccc(Br)cc4)n[nH]3)CC2)cc1OC`, the cell number change was -39%. The AC50 under setting [1] was 13 µM [falling, partial curve, poor fit].

On to `CCCCC(=O)Nc1cc(C)c(NC(=O)c2cccs2)cn1`, for which the cell number change was 1.01%. Also, the AC50 under setting [2] is 29.1 µM [falling, single point].

On to `CCSC1=N/C(=C\c2ccc(C(=O)O)cc2)C(=O)S1`, for which the cell number change was 3.97%. The AC50 under setting [2] is 5.8 µM [rising, partial curve]. In the case of `Cc1cccc(NS(=O)(=O)c2cccc(C(=O)N3CCN(c4ccccn4)CC3)c2)c1`, the cell number change was -14.4%. For the same molecule, the AC50 under setting [2] was 14.1 µM [falling, single point]. For `CCOc1ccccc1NC(=O)CSc1nnc2c(CC)c(C)nc(N)n12`, the AC50 under setting [1] was 4.11 µM [rising, single point] and the AC50 under setting [2] was 2.91 µM [rising, partial curve]. In the case of `O=C(COC(=O)C1COc2ccccc2O1)Nc1ccc2c(c1)CCC2` (stereo not given), the cell number change came out at 2.73%. On the same count and under the same terms, as for `Cc1ccccc1NC(=O)CN1C(=O)C2C3CC(C(Br)C3Br)C2C1=O` (stereo not given), the figure is 10.7%.

In the case of `CCOc1ccc(CSC(=N)N)cc1[N+](=O)[O-]`, the cell number change was found to be 17.2%. Moreover, the AC50 under setting [2] is 1.03 µM [falling, full curve]. As for `CCOc1ccc(C(=O)CCC(=O)Nc2ccccc2C)cc1`, the cell number change was 31.6%. In the case of `COc1ccc2c(c1)c(N=O)c(O)n2C`, the cell number change was determined as 2.49%. Under setting [2], the AC50 was 3.26 µM [rising, single point]. As to `COc1ccc(OC)c(NC(=O)CNC(=O)Cn2cnc3sc(C)cc3c2=O)c1`, the cell number change came out at 44.3%. For the same molecule, the AC50 under setting [1] is 32.6 µM [rising, single point]. Turning to `COC(=O)CCC(=O)c1oc2ccc(OC)cc2c1N`, the cell number change amounted to 91.1%. Moreover, the AC50 under setting [1] was 11.6 µM [rising, partial curve]. In addition, the AC50 under setting [2] was 20.6 µM [rising, partial curve].

Regarding `CCOc1ccc(N(CC(=O)NCc2ccc(C)cc2)S(=O)(=O)c2c(C)[nH]c(=O)[nH]c2=O)cc1`, the cell number change was -8.37%. Besides, the AC50 under setting [2] is 6.51 µM [falling, single point]. Turning to `Cc1ccc(C2C(C(=O)c3sc(C)nc3C)=C(O)C(=O)N2CCCN(C)C)o1` (stereo not given), the cell number change is -9.4%. For the molecule `CCS(=O)(=O)N1CCCC(C(=O)c2ccc(OC)cc2C)C1` (stereo not given), the cell number change amounted to 8.83%. Further, the AC50 under setting [2] was 0.0164 µM [rising, full curve, poor fit]. In the case of `FC(F)(F)c1cnc(Oc2ccccc2-c2nnc(-c3ccc(Cl)cc3)o2)c(Cl)c1`, the cell number change is -4.07%. Besides, the AC50 under setting [1] was 1.46 µM [rising, partial curve]. Under setting [2], the AC50 was 2.06 µM [rising, partial curve]. With `COC(=O)C(CC(C)C)NC(=O)C(N)Cc1ccccc1` (stereo not drawn) (H-Phe-Leu-OMe; configuration not given here), the cell number change was -8.09%. Regarding `CCOC(=O)C(C)N1C(=O)S/C(=C/c2cc(C)n(-c3ccncc3)c2C)C1=O` (stereo not given), the cell number change is -48.7%. For the same molecule, the AC50 under setting [1] was 20.6 µM [falling, single point]. Besides, under setting [2], the AC50 is 23.1 µM [falling, partial curve]. As for `CC(C)n1cc(CN2CCCC(C(=O)Nc3cccc(-c4cc5ccccc5[nH]4)c3)C2)cn1` (stereo not given), the AC50 under setting [2] is 6.51 µM [rising, single point]. As for `COc1ccccc1NCC(O)Cn1c2ccccc2c2ccccc21` (stereo not given), the cell number change is -45.9%. Besides, the AC50 under setting [1] is 25.9 µM [falling, single point]. On to `O=C(CCc1ccccc1)NC1(Cc2ccccc2)CCN(CCc2cccs2)C1=O` (stereo not given), for which the cell number change was -4.01%. For the same molecule, the AC50 under setting [2] is 4.11 µM [falling, single point]. With `CC(C)N(CCNC(=O)c1cn(C)c2ccc(S(=O)(=O)N(C)C)cc2c1=O)Cc1ccccc1`, the cell number change was -24.5%. Moreover, the AC50 under setting [2] was 2.06 µM [falling, partial curve].

Take `CN1CCC(N(C)CC(=O)Nc2cccc(Oc3ccccc3)c2)CC1`: the cell number change is -8.21%. The AC50 under setting [2] was 29.1 µM [falling, single point].

Turning to `COc1ccc(CCN(C)C(=O)CSc2nnc(C3CC3)n2N)cc1OC`, the cell number change is -10.6%. The AC50 under setting [2] is 6.51 µM [rising, single point]. For the molecule `O=C(C[n+]1ccccc1)N/N=C/c1ccc(C(=O)O)cc1`, the cell number change is -14.3%. Under setting [1], the AC50 is 0.259 µM [rising, single point]. As to `CN(C)S(=O)(=O)N(CC(=O)Nc1ccccc1C(F)(F)F)c1ccccc1`, the cell number change is -10.6%. Besides, the AC50 under setting [1] is 6.51 µM [falling, single point]. Regarding `O=C(COC(=O)c1c[nH]c(=O)[nH]c1=O)Nc1ccccc1Br`, the cell number change was 30.9%. Moreover, the AC50 under setting [1] was 0.291 µM [rising, full curve]. With `CC1(C2CC2)NC(=O)NC1=O` (stereo not given), the cell number change came to 3.43%. In addition, the AC50 under setting [1] is 1.16 µM [falling, full curve]. Further, under setting [2], the AC50 is 0.651 µM [falling, single point]. For `COc1ccc(-n2cnnc2SCC(=O)N2CCN(c3ccccc3)CC2)cc1`, under setting [1], the AC50 is 2.31 µM [rising, partial curve]. With `Cc1ccc(NC(=O)CCC(=O)n2nc(C)cc2C)c(C)c1`, the AC50 under setting [2] was 25.9 µM [falling, partial curve]. On to `O=C1CCN(C(=O)Nc2cccc(Cl)c2)N1`, for which the cell number change was found to be 4.58%. Turning to `Cc1cccc(Oc2ccccc2NC(=O)CSCC(=O)Nc2cc(C)on2)c1`, the cell number change was 39.1%. The AC50 under setting [1] is 13 µM [rising, single point].
